Reference: patent US20240075161A1
These are yes or no findings as the source states them, for the method shown. Some binding calls cover weakened binding; strength is not graded here. Tags and fused reporters may be left off the sequences shown.

Experiments:
[1] = target: T1, CD206 on CD206-positive M2 macrophages (mouse) (mouse) (UniProt Q61830); test: immunofluorescence of tumor, spleen and lung sections of 4T1 tumor-bearing mice after i.v. injection
T1 sequence (looked up): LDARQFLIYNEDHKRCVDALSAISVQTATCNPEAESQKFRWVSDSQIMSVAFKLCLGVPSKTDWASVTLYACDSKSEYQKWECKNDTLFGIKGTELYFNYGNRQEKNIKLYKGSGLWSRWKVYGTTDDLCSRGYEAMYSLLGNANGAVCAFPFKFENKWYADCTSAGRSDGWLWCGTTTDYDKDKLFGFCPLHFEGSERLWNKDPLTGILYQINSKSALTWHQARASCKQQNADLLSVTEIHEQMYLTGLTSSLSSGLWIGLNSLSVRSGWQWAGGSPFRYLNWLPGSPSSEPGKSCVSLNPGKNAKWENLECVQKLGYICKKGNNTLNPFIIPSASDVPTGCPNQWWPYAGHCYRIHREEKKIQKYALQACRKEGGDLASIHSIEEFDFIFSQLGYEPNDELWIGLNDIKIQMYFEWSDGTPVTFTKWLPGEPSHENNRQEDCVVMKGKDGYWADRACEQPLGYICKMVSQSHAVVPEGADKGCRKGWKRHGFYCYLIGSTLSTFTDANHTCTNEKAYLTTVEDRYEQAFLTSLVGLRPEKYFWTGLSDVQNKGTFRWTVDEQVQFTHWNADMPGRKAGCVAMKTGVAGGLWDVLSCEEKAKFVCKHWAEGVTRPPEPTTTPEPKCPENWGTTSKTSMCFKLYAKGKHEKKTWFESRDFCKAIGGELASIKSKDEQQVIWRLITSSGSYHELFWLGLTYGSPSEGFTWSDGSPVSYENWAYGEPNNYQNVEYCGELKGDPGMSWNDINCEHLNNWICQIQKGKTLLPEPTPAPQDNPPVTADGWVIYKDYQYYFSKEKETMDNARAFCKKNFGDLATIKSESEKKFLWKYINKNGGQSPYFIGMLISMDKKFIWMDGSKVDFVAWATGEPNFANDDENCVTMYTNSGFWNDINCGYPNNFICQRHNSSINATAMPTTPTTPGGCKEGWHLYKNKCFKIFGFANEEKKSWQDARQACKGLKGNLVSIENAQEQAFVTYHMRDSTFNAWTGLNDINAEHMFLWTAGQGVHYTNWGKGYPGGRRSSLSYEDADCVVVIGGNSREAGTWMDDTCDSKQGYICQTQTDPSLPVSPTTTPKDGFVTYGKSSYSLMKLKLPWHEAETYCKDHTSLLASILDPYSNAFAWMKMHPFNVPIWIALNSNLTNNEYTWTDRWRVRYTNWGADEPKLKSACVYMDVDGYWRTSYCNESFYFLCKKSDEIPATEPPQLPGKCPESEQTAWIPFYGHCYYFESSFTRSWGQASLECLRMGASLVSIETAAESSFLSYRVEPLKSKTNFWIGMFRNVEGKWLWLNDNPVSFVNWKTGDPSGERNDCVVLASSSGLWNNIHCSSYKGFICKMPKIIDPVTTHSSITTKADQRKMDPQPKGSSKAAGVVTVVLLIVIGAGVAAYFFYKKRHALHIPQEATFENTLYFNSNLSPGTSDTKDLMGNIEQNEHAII

[2] = target: T1, CD206 on CD206-positive M2 macrophages (mouse) (mouse); test: immunofluorescence, DiI-labeled exosomes co-cultured with RAW264.7 cells

B1: Modified Lamp2b protein containing the CD206-positive M2 macrophage-targeting peptide and a C-terminal 6xHis tag, displayed on HEK293 engineered exosomes (protein, mouse)
chain: CSPGAKVRCLIVNLTDSKGTCLYAEWEMNFTITYETTNQTNKTITIAVPDKATHDGSSCGDDRNSAKIMIQFGFAVSWAVNFTKEASHYSIHDIVLSYNTSDSTVFPGAVAKGVHTVKNPENFKVPLDVIFKCNSVLTYNLTPVVQKYWGIHLQAFVQNGTVSKNEQVCEEDQTPTTVAPIIHTTAPSTTTTLTPTSTPTPTPTPTPTVGNYSIRNGNTTCLLATMGLQLNITEEKVPFIFNINPATTNFTGSCQPQSAQLRLNNSQIKYLDFIFAVKNEKRFYLKEVNVYMYLANGSAFNISNKNLSFWDAPLGSSYMCNKEQVLSVSRAFQINTFNLKVQPFNVTKGQYSTAEECAADSDLNFLIPVAVGVALGFLIIAVFISYMIGRRKSRTGYQSVHHHHHH
[1]
  binding: binds
[2]
  binding: binds
